The text below walks through data of the supplement of paper PMC3353916.

± gives the standard deviation of the averaged measurements. The data scatter; read single values as rough.

The test system of this data set is Sindbis virus TE/5'2J-GFP. Description: percent infected (GFP+ in RFP+ ISG-expressing cells); higher = more infection (less antiviral activity). Particulars: experiment: primary screen (single well).

Under “BHK/HA-Zeo (control)”, “MSETPAQCSIKQERISYTPPESPVPSYASSTPLHVPVPRALRMEEDSIRLPAHLRLQPIYWSRDDVAQWLKWAENEFSLRPIDSNTFEMNGKALLLLTKEDFRYRSPHSGDVLYELLQHILKQRKPRILFSPFFHPGNSIHTQPEVILHQNHEEDNCVQRTPRPSVDNVHHNPPTIELLHRSRSPITTNHRPSPDPEQRPLRSPLDNMIRRLSPAERAQGPRPHQENNHQESYPLSVSPMENNHCPASSESHPKPSSPRQESTRVIQLMPSPIMHPLILNPRHSVDFKQSRLSEDGLHREGKPINLSHREDLAYMNHIMVSVSPPEEHAMPIGRIADCRLLWDYVYQLLSDSRYENFIRWEDKESKIFRIVDPNGLARLWGNHKNRTNMTYEKMSRALRHYYKLNIIRKEPGQRLLFRFMKTPDEIMSGRTDRLEHLESQELDEQIYQEDEC [ETV6]” gave a percent infected of 97.6%.

Consider “MPAPRAREQPRVPGERQPLLPRGARGPRRWRRAAGAAVLLVEMLERAAFFGVTANLVLYLNSTNFNWTGEQATRAALVFLGASYLLAPVGGWLADVYLGRYRAVALSLLLYLAASGLLPATAFPDGRSSFCGEMPASPLGPACPSAGCPRSSPSPYCAPVLYAGLLLLGLAASSVRSNLTSFGADQVMDLGRDATRRFFNWFYWSINLGAVLSLLVVAFIQQNISFLLGYSIPVGCVGLAFFIFLFATPVFITKPPMGSQVSSMLKLALQNCCPQLWQRHSARDRQCARVLADERSPQPGASPQEDIANFQVLVKILPVMVTLVPYWMVYFQMQSTYVLQGLHLHIPNIFPANPANISVALRAQGSSYTIPEAWLLLANVVVVLILVPLKDRLIDPLLLRCKLLPSALQKMALGMFFGFTSVIVAGVLEMERLHYIHHNETVSQQIGEVLYNAAPLSIWWQIPQYLLIGISEIFASIPGLEFAYSEAPRSMQGAIMGIFFCLSGVGSLLGSSLVALLSLPGGWLHCPKDFGNINNCRMDLYFFLLAGIQAVTALLFVWIAGRYERASQGPASHSRFSRDRG [SLC15A3]”, for which the percent infected is, setting by setting: (BHK/HA-Zeo (control)) 94.6%; (BHK/NZAP-Zeo (ZAP)) 94.6%.

As to “MGAQLCFEANAKAPREALRFHAEAKGAQVRLDTRGCIAHRRTTFHDGIVFSQRPVRLGERVALRVLREESGWCGGLRVGFTRLDPACVSVPSLPPFLCPDLEEQSPTWAAVLPEGCALTGDLVRFWVDRRGCLFAKVNAGCRLLLREGVPVGAPLWAVMDVYGTTKAIELLDPTASRLPTPMPWDLSNKAVPEPKATPGEECAICFYHAANTRLVPCGHTYFCRYCAWRVFSDTAKCPVCRWQIEAVAPAQGPPALRVEEGS [LINCR]”, the percent infected reads like this: (BHK/HA-Zeo (control)) 91.4%; (BHK/NZAP-Zeo (ZAP)) 74.7%.

For “MNPAAEAEFNILLATDSYKVTHYKQYPPNTSKVYSYFECREKKTENSKLRKVKYEETVFYGLQYILNKYLKGKVVTKEKIQEAKDVYKEHFQDDVFNEKGWNYILEKYDGHLPIEIKAVPEGFVIPRGNVLFTVENTDPECYWLTNWIETILVQSWYPITVATNSREQKKILAKYLLETSGNLDGLEYKLHDFGYRGVSSQETAGIGASAHLVNFKGTDTVAGLALIKKYYGTKDPVPGYSVPAAEHSTITAWGKDHEKDAFEHIVTQFSSVPVSVVSDSYDIYNACEKIWGEDLRHLIVSRSTQAPLIIRPDSGNPLDTVLKVLEILGKKFPVTENSKGYKLLPPYLRVIQGDGVDINTLQEIVEGMKQKMWSIENIAFGSGGGLLQKLTRDLLNCSFKCSYVVTNGLGINVFKDPVADPNKRSKKGRLSLHRTPAGNFVTLEEGKGDLEEYGQDLLHTVFKNGKVTKSYSFDEIRKNAQLNIELEAAHH [PBEF1]”, the percent infected (BHK/HA-Zeo (control)) was found to be 93.9%.

For “MQLRKMQTVKKEQASLDASSNVDKMMVLNSALTEVSEDSTTGEELLLSEGSVGKNKSSACRRKREFIPDEKKDAMYWEKRRKNNEAAKRSREKRRLNDLVLENKLIALGEENATLKAELLSLKLKFGLISSTAYAQEIQKLSNSTAVYFQDYQTSKSNVSSFVDEHEPSMVSSSCISVIKHSPQSSLSDVSEVSSVEHTQESSVQGSCRSPENKFQIIKQEPMELESYTREPRDDRGSYTASIYQNYMGNSFSGYSHSPPLLQVNRSSSNSPRTSETDDGVVGKSSDGEDEQQVPKGPIHSPVELKHVHATVVKVPEVNSSALPHKLRIKAKAMQIKVEAFDNEFEATQKLSSPIDMTSKRHFELEKHSAPSMVHSSLTPFSVQVTNIQDWSLKSEHWHQKELSGKTQNSFKTGVVEMKDSGYKVSDPENLYLKQGIANLSAEVVSLKRLIATQPISASDSG [NFIL3]”, the percent infected reads like this: (BHK/HA-Zeo (control)) 98.1%; (BHK/NZAP-Zeo (ZAP)) 92.3%.

In the case of “MAGIELERCQQQANEVTEIMRNNFGKVLERGVKLAELQQRSDQLLDMSSTFNKTTQNLAQKKCWENIRYRICVGLVVVGVLLIILIVLLVVFLPQSSDSSSAPRTQDAGIASGPGN [VAMP5]”, the percent infected reads like this: (BHK/HA-Zeo (control)) 87.6%; (BHK/NZAP-Zeo (ZAP)) 78.1%.

For the substance “MIAAQAKLVYQLNKYYTERCQARKAAIAKTIREVCKVVSDVLKEVEVQEPRFISSLSEIDARYEGLEVISPTEFEVVLYLNQMGVFNFVDDGSLPGCAVLKLSDGRKRSMSLWVEFITASGYLSARKIRSRFQTLVAQAVDKCSYRDVVKMIADTSEVKLRIRERYVVQITPAFKCTGIWPRSAAQWPMPHIPWPGPNRVAEVKAEGFNLLSKECYSLTGKQSSAESDAWVLQFGEAENRLLMGGCRNKCLSVLKTLRDRHLELPGQPLNNYHMKTLLLYECEKHPRETDWDESCLGDRLNGILLQLISCLQCRRCPHYFLPNLDLFQGKPHSALESAAKQTWRLAREILTNPKSLDKL [MAB21L2]”, the percent infected was 92.4% (BHK/HA-Zeo (control)) and 64.2% (BHK/NZAP-Zeo (ZAP)).

Consider ABTB2, for which the percent infected (BHK/HA-Zeo (control)) came out at 96.8% and the percent infected (BHK/NZAP-Zeo (ZAP)) was found to be 83.2%.

In the case of “MAGPERWGPLLLCLLQAAPGRPRLAPPQNVTLLSQNFSVYLTWLPGLGNPQDVTYFVAYQSSPTRRRWREVEECAGTKELLCSMMCLKKQDLYNKFKGRVRTVSPSSKSPWVESEYLDYLFEVEPAPPVLVLTQTEEILSANATYQLPPCMPPLDLKYEVAFWKEGAGNKTLFPVTPHGQPVQITLQPAASEHHCLSARTIYTFSVPKYSKFSKPTCFLLEVPEANWAFLVLPSLLILLLVIAAGGVIWKTLMGNPWFQRAKMPRALDFSGHTHPVATFQPSRPESVNDLFLCPQKELTRGVRPTPRVRAPATQQTRWKKDLAEDEEEEDEEDTEDGVSFQPYIEPPSFLGQEHQAPGHSEAGGVDSGRPRAPLVPSEGSSAWDSSDRSWASTVDSSWDRAGSSGYLAEKGPGQGPGGDGHQESLPPPEFSKDSGFLEELPEDNLSSWATWGTLPPEPNLVPGGPPVSLQTLTFCWESSPEEEEEARESEIEDSDAGSWGAESTQRTEDRGRTLGHYMAR [IL28RA]”, the percent infected reads like this: (BHK/HA-Zeo (control)) 55.5%; (BHK/NZAP-Zeo (ZAP)) 5.76%.

On to TIMP1, for which the percent infected by setting is: (BHK/HA-Zeo (control)) 90.1%; (BHK/NZAP-Zeo (ZAP)) 81.8%.

Turning to “MSTAALITLVRSGGNQVRRRVLLSSRLLQDDRRVTPTCHSSTSEPRCSRFDPDGSGSPATWDNFGIWDNRIDEPILLPPSIKYGKPIPKISLENVGCASQIGKRKENEDRFDFAQLTDEVLYFAVYDGHGGPAAADFCHTHMEKCIMDLLPKEKNLETLLTLAFLEIDKAFSSHARLSADATLLTSGTTATVALLRDGIELVVASVGDSRAILCRKGKPMKLTIDHTPERKDEKERIKKCGGFVAWNSLGQPHVNGRLAMTRSIGDLDLKTSGVIAEPETKRIKLHHADDSFLVLTTDGINFMVNSQEICDFVNQCHDPNEAAHAVTEQAIQYGTEDNSTAVVVPFGAWGKYKNSEINFSFSRSFASSGRWA [PPM1K]”, the percent infected is, setting by setting: (BHK/HA-Zeo (control)) 97.75 ± 0.21%; (BHK/NZAP-Zeo (ZAP)) 90.3 ± 0.14%.

Regarding “MAAQQRDCGGAAQLAGPAAEADPLGRFTCPVCLEVYEKPVQVPCGHVFCSACLQECLKPKKPVCGVCRSALAPGVRAVELERQIESTETSCHGCRKNFFLSKIRSHVATCSKYQNYIMEGVKATIKDASLQPRNVPNRYTFPCPYCPEKNFDQEGLVEHCKLFHSTDTKSVVCPICASMPWGDPNYRSANFREHIQRRHRFSYDTFVDYDVDEEDMMNQVLQRSIIDQ [ZNF313]”, the percent infected was found to be 96.6% (BHK/HA-Zeo (control)) and 92.7% (BHK/NZAP-Zeo (ZAP)).
